The source of these data is paper PMC7053240.

Amino acid sequences for entries named in this document (tags omitted).
UniProt P35249: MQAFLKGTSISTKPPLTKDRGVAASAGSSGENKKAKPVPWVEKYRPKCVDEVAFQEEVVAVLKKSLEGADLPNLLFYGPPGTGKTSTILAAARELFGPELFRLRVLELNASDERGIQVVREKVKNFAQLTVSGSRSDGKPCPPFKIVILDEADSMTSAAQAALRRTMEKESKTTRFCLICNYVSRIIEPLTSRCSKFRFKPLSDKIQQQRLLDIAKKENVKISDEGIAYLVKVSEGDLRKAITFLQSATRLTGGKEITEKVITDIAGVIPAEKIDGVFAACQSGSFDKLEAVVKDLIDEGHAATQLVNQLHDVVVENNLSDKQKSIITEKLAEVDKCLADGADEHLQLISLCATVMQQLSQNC
UniProt P40938: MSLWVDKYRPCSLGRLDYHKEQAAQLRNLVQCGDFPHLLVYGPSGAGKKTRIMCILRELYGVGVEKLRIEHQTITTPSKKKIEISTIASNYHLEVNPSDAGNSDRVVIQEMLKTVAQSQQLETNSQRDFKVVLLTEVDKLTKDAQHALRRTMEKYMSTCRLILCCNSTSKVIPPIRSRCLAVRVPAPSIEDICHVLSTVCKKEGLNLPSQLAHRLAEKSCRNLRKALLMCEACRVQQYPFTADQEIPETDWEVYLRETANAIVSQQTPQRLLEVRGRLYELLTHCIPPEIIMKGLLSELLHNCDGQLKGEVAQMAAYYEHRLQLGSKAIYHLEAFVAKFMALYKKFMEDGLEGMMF

Results are given in words; binding and its absence hold for the method and conditions named. In cells and extracts the contact can be indirect. Some binding calls cover weakened binding; strength is not graded here.

For assay [1], the target named is T1, Rad17 (human (endogenous in ESCC cells)) (UniProt O75943).
T1 sequence: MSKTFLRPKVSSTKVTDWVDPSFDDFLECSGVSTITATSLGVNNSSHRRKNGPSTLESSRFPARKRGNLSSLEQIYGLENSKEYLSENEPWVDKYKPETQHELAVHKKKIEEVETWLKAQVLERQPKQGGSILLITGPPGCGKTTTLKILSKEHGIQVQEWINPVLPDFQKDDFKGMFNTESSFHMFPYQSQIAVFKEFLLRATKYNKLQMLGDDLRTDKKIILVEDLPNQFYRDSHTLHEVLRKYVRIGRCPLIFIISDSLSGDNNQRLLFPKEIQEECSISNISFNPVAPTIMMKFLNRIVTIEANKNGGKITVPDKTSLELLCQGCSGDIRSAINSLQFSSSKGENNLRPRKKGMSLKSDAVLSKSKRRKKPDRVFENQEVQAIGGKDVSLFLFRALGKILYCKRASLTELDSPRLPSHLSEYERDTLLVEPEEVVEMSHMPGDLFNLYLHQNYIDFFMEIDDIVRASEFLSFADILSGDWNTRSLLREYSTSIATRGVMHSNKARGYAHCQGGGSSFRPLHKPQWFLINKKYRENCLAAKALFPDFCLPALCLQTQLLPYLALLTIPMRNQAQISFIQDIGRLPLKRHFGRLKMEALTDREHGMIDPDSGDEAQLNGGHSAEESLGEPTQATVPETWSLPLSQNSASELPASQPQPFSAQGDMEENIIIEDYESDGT
In words: co-IP; Rad17 CoIP from cell lysate (Pierce IP lysis buffer, 2 ug antibody overnight at 4 °C, protein A/G sepharose beads), immunoblot for RFC3/4; cells with or without NELFA mRNA ASO knockdown. A general note: Immunoblotting shows a protein as a band on a membrane.

For assay [2], the target named is RFC4 (human (endogenous in ESCC cells)) (UniProt P35249). Kind of assay: co-IP; RFC3/4 CoIP from cell lysate (Pierce IP lysis buffer, 2 ug antibody overnight at 4 °C, protein A/G sepharose beads), immunoblot; cells with or without NELFA mRNA ASO knockdown.
The target of assay [3] is RFC3 (human (endogenous in ESCC cells)) (UniProt P40938). Described as above.

Consider RFC3 (from UniProt P40938 1-356), for which, in assay [1], the binding entry is listed as “binds”.

Regarding RFC4 (from UniProt P35249 1-363), the binding entry in assay [1] was “binds”.

B1: Rad17 (protein, UniProt O75943 1-681)
chain: MSKTFLRPKVSSTKVTDWVDPSFDDFLECSGVSTITATSLGVNNSSHRRKNGPSTLESSRFPARKRGNLSSLEQIYGLENSKEYLSENEPWVDKYKPETQHELAVHKKKIEEVETWLKAQVLERQPKQGGSILLITGPPGCGKTTTLKILSKEHGIQVQEWINPVLPDFQKDDFKGMFNTESSFHMFPYQSQIAVFKEFLLRATKYNKLQMLGDDLRTDKKIILVEDLPNQFYRDSHTLHEVLRKYVRIGRCPLIFIISDSLSGDNNQRLLFPKEIQEECSISNISFNPVAPTIMMKFLNRIVTIEANKNGGKITVPDKTSLELLCQGCSGDIRSAINSLQFSSSKGENNLRPRKKGMSLKSDAVLSKSKRRKKPDRVFENQEVQAIGGKDVSLFLFRALGKILYCKRASLTELDSPRLPSHLSEYERDTLLVEPEEVVEMSHMPGDLFNLYLHQNYIDFFMEIDDIVRASEFLSFADILSGDWNTRSLLREYSTSIATRGVMHSNKARGYAHCQGGGSSFRPLHKPQWFLINKKYRENCLAAKALFPDFCLPALCLQTQLLPYLALLTIPMRNQAQISFIQDIGRLPLKRHFGRLKMEALTDREHGMIDPDSGDEAQLNGGHSAEESLGEPTQATVPETWSLPLSQNSASELPASQPQPFSAQGDMEENIIIEDYESDGT
Turning to B1, the binding entry in assay [2] and in assay [3] was “binds” throughout.
